For at least one compound, name, drawing or mass did not settle the structure.
Molecular target: cGAS (Homo sapiens, UniProt Q8N884)
Format: cell-based

Chains of the proteins cited; added tags and fusions are not shown.
UniProt Q8N884, whole entry: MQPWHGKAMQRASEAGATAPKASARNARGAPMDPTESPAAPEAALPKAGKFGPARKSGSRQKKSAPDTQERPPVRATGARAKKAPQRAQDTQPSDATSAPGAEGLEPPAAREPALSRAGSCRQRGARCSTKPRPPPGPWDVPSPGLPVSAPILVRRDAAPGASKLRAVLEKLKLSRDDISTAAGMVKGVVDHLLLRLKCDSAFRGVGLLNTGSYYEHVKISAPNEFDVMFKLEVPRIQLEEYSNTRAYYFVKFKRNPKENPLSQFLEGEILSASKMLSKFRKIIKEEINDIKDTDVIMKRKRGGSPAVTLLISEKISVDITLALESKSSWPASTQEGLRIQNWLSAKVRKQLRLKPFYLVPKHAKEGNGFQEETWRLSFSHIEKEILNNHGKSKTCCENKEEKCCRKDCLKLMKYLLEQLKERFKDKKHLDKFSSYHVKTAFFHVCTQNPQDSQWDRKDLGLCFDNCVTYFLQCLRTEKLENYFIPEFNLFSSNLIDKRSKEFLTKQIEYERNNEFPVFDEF

Row | SMILES | Activity Score (Inhibition of cGAS)
1 | Cc1c(C2CCN(C(=O)c3ccc(C(F)(F)F)c(Cl)c3)CC2)noc1N [Compound 119, (4-(5-amino-4-methylisoxazol-3-yl)piperidin-1-yl)(3-chloro-4-(trifluoromethyl)phenyl)methanone] | +
2 | O=C(c1ccc(OC(F)(F)F)c(F)c1)N1CCC(c2cc(NCCN3CCOCC3)on2)CC1 [Compound 125, ethyl (3-fluoro-4-(trifluoromethoxy)phenyl)(4-(5-(2-morpholinoethylamino)isoxazol-3-yl)piperidin-1-yl)methanone] | +++

Source: patent US20240342185A1, “SMALL MOLECULES INHIBITORS OF CYCLIC GMP-AMP SYNTHASE (cGAS)” (priority 2021, published 2024)
